This is an account of results in PMC5884802.

By UniProt entry, the sequences of proteins in these tests, tags left out. Where a name states a change or a piece, a line headed by the entry shows the natural chain unless it says otherwise. Residues count along the entry.
UniProt P22629: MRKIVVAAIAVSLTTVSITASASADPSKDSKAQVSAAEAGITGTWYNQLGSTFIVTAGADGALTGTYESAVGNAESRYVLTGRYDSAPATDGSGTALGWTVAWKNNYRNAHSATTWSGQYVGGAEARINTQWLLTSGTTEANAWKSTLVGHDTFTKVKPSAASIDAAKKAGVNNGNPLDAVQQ
UniProt P02769, 25-607: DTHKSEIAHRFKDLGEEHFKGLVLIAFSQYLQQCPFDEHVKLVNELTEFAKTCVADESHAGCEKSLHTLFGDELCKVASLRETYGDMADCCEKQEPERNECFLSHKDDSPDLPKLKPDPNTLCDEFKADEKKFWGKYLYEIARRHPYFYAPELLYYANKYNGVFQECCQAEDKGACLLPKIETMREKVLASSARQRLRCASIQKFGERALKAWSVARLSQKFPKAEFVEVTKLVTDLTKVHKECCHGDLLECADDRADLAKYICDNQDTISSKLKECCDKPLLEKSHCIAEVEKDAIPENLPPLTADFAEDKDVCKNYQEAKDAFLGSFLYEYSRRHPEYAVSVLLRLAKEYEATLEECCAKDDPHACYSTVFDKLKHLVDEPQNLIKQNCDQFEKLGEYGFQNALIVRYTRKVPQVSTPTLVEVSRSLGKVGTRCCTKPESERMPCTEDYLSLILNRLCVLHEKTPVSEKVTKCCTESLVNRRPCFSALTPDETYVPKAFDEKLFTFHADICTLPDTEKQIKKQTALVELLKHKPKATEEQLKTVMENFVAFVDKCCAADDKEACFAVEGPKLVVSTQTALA

For part of these data: No signal at the amounts used counts as a negative. For part of these data: Construct, isoform or probe ends are uncertain for at least one entry. For part of these data: A weaker result is weaker than the reference pair of the same experiment. For part of these data: Where a protein sequence is shown, tags need not be part of it.

Series [1] deals with T1, C-reactive protein (CRP), biotinylated (UniProt P02741).
T1 sequence (looked up, limits assumed): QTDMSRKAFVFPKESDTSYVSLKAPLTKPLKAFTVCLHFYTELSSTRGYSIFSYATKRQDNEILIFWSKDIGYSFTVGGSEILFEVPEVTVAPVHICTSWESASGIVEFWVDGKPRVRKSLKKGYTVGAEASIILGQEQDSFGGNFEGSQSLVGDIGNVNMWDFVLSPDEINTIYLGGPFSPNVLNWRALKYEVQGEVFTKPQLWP
Briefly: lateral flow assay, competition. The note with it: 5' SH-(C6H12) thiol, LFA: 20 mM Tris, 50 mM NaCl, 5 mM KCl, 5 mM MgCl2, 2 mM CaCl2, 0.1 mM BSA, 1.7% Triton X-100, pH 8, temperature not stated, commercial protein, protein details: biotin (NHS-PEG4-Biotin), label: 10 nm gold nanoparticle via 5' thiol, single-stranded DNA.

The next series addresses streptavidin (UniProt P22629). Kind of series: lateral flow assay (AuNP). The note with it: no-target control; 5' SH-(C6H12) thiol; LFA: 20 mM Tris, 50 mM NaCl, 5 mM KCl, 5 mM MgCl2, 2 mM CaCl2, 0.1 mM BSA, 1.7% Triton X-100, pH 8, temperature not stated; commercial protein; label: 10 nm gold nanoparticle via 5' thiol; single-stranded DNA.
The target of series [2] is bovine serum albumin (BSA), biotinylated (UniProt P02769). Kind of series: lateral flow assay (AuNP). The note with it: 40.5 µg BSA-biotin, same outcome stated for α-Amp-poly(T) and α-CRP; 5' SH-(C6H12) thiol; LFA: 20 mM Tris, 50 mM NaCl, 5 mM KCl, 5 mM MgCl2, 2 mM CaCl2, 0.1 mM BSA, 1.7% Triton X-100, pH 8, temperature not stated; commercial protein; protein details: biotin; label: 10 nm gold nanoparticle via 5' thiol; single-stranded DNA.

Regarding “CACGGCATGGTGGGCGTCGTG [α-Amp-short (AuNP conjugate)]”, the binding result in series [1] (185 µg ampicillin per strip (about 326-fold excess) reduces test line) is reported as “binds more weakly”; with streptavidin, “no binding”; in series [2], “no binding”.

As for “TTTTTTTTTTTTTTTCACGGCATGGTGGGCGTCGTG [α-Amp-poly(T) (AuNP conjugate)]”, the binding result in the series with streptavidin was “no binding”.

On to “ACACGATGGGGGGGTATGATTTGATGTGGTTGTTGCATGATCGTGG [α-CRP (AuNP conjugate)]”, for which the binding result is on record as “binds more weakly” in series [1] (18.5 µg ampicillin per strip (32.6-fold excess) reduces test line) and “no binding” in the series with streptavidin.
